Measurements: PubChem BioAssay AID540276 (National Center for Advancing Translational Sciences (NCATS), 2011)
The campaign covered roughly 300,000 compounds. About 5,400 (1.8%) were called active. Inconclusive means that the source gave no clear call. Such entries were picked first, then a sample of the others. The call rests on the fitted dose curve; tested in HEK293 cells. Where the call is inconclusive, the potency comes from a doubtful curve fit.

experiment: qHTS for inhibitors of binding or entry into cells for Marburg Virus; conditions: Marburg virus pseudotyped entry inhibition, cell reporter; activity change, negative = inhibition: at 37.8 µM (top of the series) unless noted
On the % scale 0 is the no-effect control and ±100 the full control effect; potency means the concentration at half of the fitted maximal effect.

Row | Compound | Potency | activity change, negative = inhibition
1 | CCOc1ccccc1N1CCN(C/C=C/c2ccc(N(C)C)cc2)CC1 | inconclusive: 12.6 µM [inhibitor, partial curve] | 
2 | O=P(c1ccccc1)(c1ccccc1)C(c1ccco1)N1CCOCC1 (stereo not drawn) | inconclusive: 35.5 µM [inhibitor, single point] | 
3 | COc1ccccc1NC(=O)COC(=O)c1ccc2ccccc2n1 | inconclusive: 0.0891 µM [activator, full curve, poor fit] | 
4 | Cc1ccc(OCCn2c(=O)n(C)c3ccccc32)cc1 | inconclusive: 11.2 µM [inhibitor, single point] | 
5 | COC(=O)c1ccc(OC)c(CN2CCCN(Cc3ccc(F)cc3)S2(=O)=O)c1 | inconclusive: 22.4 µM [inhibitor, single point] | 
6 | O=C(O)CN(c1ccccc1[N+](=O)[O-])S(=O)(=O)c1ccccc1 |  | inactive: -4.29% [at 46.1 µM]
7 | CCOC(=O)c1ccc(C(=O)OCC)c(NC(=S)Nc2ccc([N+](=O)[O-])cc2OC)c1 |  | inactive: 19%
8 | CN(CC(=O)NCc1ccco1)CC(=O)Nc1ccc(F)c(F)c1F |  | inactive: 1.85% [at 46.1 µM]
9 | Cc1cc2cc3c(cc2nc1SCC(=O)N1CCCC1)OCCO3 | inconclusive: 8.91 µM [inhibitor, partial curve, poor fit] | 
10 | COc1ccc(CN(Cc2ccc(OC)cc2)S(=O)(=O)c2ccc(-n3cnnn3)c(C)c2)cc1 | inconclusive: 20.6 µM [inhibitor, partial curve] | 
11 | Cc1ccc2c(COC(=O)C3=COCCO3)cc(=O)oc2c1 | inconclusive: 5.62 µM [inhibitor, single point] | 
12 | Cc1cc(C(=O)COC(=O)c2n[nH]c3ccccc23)c(C)n1CC1CCCO1 (stereo not drawn) | active: 7.08 µM | 
13 | CCCC=CC1C(=O)[C@@H]2O[C@H]2C2(OCC(CC)(CC)CO2)C1CO (stereo partly drawn) |  | inactive: -11.4% [at 14.2 µM]
14 | CCOC(=O)N1CCc2c(sc3c2c(=O)n(Cc2ccccc2)c(=O)n3CC(=O)Nc2cccc(C)c2)C1 | inconclusive: 3.16 µM [inhibitor, single point] | 
15 | CSc1ccc(CNCC(O)c2ccccc2)cc1 (stereo not drawn) |  | inactive: 14.8% [at 46.1 µM]
16 | C=C(C)Cn1c(CCn2c3ccccc3c3ccccc32)n[nH]c1=S | inconclusive: 0.0891 µM [activator, full curve, poor fit] | 
17 | O=C1C=C(c2ccccc2)C[C@H](c2cccs2)[C@H]1n1nnc([N+](=O)[O-])n1 | active: 2 µM | 
18 | Cc1ccc(C)c(CSc2nc3[nH]ncc3c(=O)[nH]2)c1 | inconclusive: 0.355 µM [inhibitor, full curve, poor fit] | 
19 | Cc1cc(NC(=O)c2cc(-c3cccnc3)nc3c(C)c(C)ccc23)no1 | inconclusive: 35.5 µM [inhibitor, single point] | 
20 | COc1ccccc1Oc1ccc2c(c1)C(=O)N(CC1CCCO1)C2=O (stereo not drawn) |  | inactive: 13.7%
21 | O=C(NCc1nc(-c2ccccc2)no1)Nc1ccc(F)cc1 | inconclusive: 35.5 µM [inhibitor, single point] | 
22 | Cc1csc(NC(=O)C(NC(=O)c2ccccc2F)C(C)C)n1 (stereo not drawn) |  | inactive: 4.19%
23 | Cc1cc(C)n(C(=O)c2c([N+](=O)[O-])cnn2C)n1 |  | inactive: 21.1%

Row | Compound | Potency | activity change, negative = inhibition
24 | COCCNC(=O)CSc1nc(N)c(NC(=O)c2ccccc2F)c(=O)[nH]1 | inconclusive: 6.31 µM [activator, partial curve, poor fit] | 
25 | COc1ccccc1NS(=O)(=O)c1ccc(N/N=C/C=C/c2ccccc2[N+](=O)[O-])c([N+](=O)[O-])c1 |  | inactive: -18.5%
26 | Cc1onc(-c2ccccc2)c1C(=O)Nc1sc2c(c1C(N)=O)CCC2 | inconclusive: 29.1 µM [inhibitor, single point] | 
27 | CC1=C(/C=C/C(C)=C/C=C/C(C)=C/C(=O)O)C(C)(C)CCC1 | inconclusive: 3.98 µM [activator, single point] | 
28 | CCOc1cc(/C=N/NC(=O)c2cc(C)[nH]n2)ccc1OC(=O)c1ccc([N+](=O)[O-])cc1 |  | inactive: 1.85%
29 | CCOC(=O)C1=C(N)Oc2ccc3ccccc3c2C1c1cccnc1 (stereo not drawn) |  | inactive: -14.8%
30 | O=c1[nH]c(SCc2n[nH]c(=S)n2-c2ccccc2)nc2ccccc12 | inconclusive: 35.5 µM [activator, single point] | 
31 | CC(=O)Nc1ccc(NC(=O)CNC(=O)c2sc3ccccc3c2Cl)cc1 | inconclusive: 11.2 µM [inhibitor, partial curve] | 
32 | N#Cc1c([N+](=O)[O-])cc([N+](=O)[O-])cc1S(=O)(=O)Cc1ccccc1 | inconclusive: 10 µM [inhibitor, partial curve, poor fit] | 
33 | CN(CC(=O)Nc1cccc2ccccc12)c1ccc(S(=O)(=O)N2CCOCC2)cn1 | inconclusive: 0.891 µM [activator, full curve, poor fit] | 
34 | CCCCC(=O)NC(c1ccc(Cl)cc1Cl)c1ccc2cccnc2c1O (stereo not drawn) | inconclusive: 1.78 µM [inhibitor, full curve, poor fit] | 
36 | COC(=O)c1ccc(/C=C(\C#N)c2nc3ccccc3s2)cc1 |  | inactive: 26.7%
37 | O=C(Cc1ccccc1)Nc1cccc(-c2nc3ncccc3o2)c1 | inconclusive: 35.5 µM [inhibitor, single point] | 
38 | O=C(O)c1cnn2c(C(F)(F)F)cc(-c3ccco3)nc12 | inconclusive: 23.1 µM [activator, single point] | 
39 | COc1ccc(S(=O)(=O)N2CCN(C)CC2)cc1C(=O)Nc1ccccc1 | inconclusive: 5.62 µM [inhibitor, single point] | 
40 | COc1ccc(NC(=O)CCCSc2nc(-c3ccco3)cc(C(F)(F)F)n2)cc1 |  | inactive: -0.294% [at 46.1 µM]
41 | CCC(=O)N1c2ccccc2C(N(C(=O)CC)c2ccccc2)CC1C (stereo not drawn) | inconclusive: 0.562 µM [inhibitor, full curve, poor fit] | 
42 | CCCS(=O)(=O)N1CCN(C(=O)COc2ccc(OC)cc2)CC1 | inconclusive: 6.51 µM [inhibitor, single point] | 
43 | O=C(CCC(=O)N1CCOCC1)c1ccc(F)cc1 |  | inactive: -13.5% [at 46.1 µM]
44 | COc1ccc(C(=O)CC(=O)C(=O)Nc2cccc([N+](=O)[O-])c2C)cc1 |  | inactive: -19.2% [at 46.1 µM]
45 | Cc1cc(C)c2nc(/N=C(\N)NC(=O)Nc3ccccc3)nc(C)c2c1 | inconclusive: 11.2 µM [inhibitor, partial curve, poor fit] | 
46 | Cc1ccc2nsnc2c1-n1c(C)nc2ccccc2c1=O |  | inactive: -11.4%

Row | Compound | Potency | activity change, negative = inhibition
47 | O=C(Nc1cccc([N+](=O)[O-])c1)c1ccc(CSc2ccccc2)cc1 |  | inactive: -3.3%
48 | O=C(NCCCn1ccnc1)c1nn2c(C(F)(F)F)cc(-c3ccccc3)nc2c1Cl | inconclusive: 20 µM [inhibitor, partial curve, poor fit] | 
49 | CCCCN(CC)CCCNC(=S)Nc1ccc2nc(N3CCN(C)CC3)cc(C)c2c1 | active: 2.51 µM | 
50 | COc1ccc(C(=O)NCCSc2c(C)[nH]c3ccccc23)cc1 | inconclusive: 25.1 µM [inhibitor, single point] | 
51 | C/C(=N/O)c1ccc(Oc2cnccn2)cc1 | inconclusive: 3.55 µM [activator, full curve] | 
52 | CN(/N=C/c1ccc(-c2ccc([N+](=O)[O-])cc2)o1)c1ccccc1 |  | inactive: -3.72% [at 46.1 µM]
53 | CCCCOc1ccc(CN2CCC(O)CC2)cc1 |  | inactive: 28%
54 | C(=N\Nc1nc(N2CCCC2)nc(N2CCCC2)n1)/c1ccccc1OCc1ccccc1 | inconclusive: 15.8 µM [inhibitor, partial curve, poor fit] | 
55 | Cc1ccc(NC(=O)c2cccc(OCc3c(C)noc3C)c2)c(C)c1 | inconclusive: 20.6 µM [inhibitor, single point] | 
56 | CN1CCCC(C#CC(O)(c2ccccc2)c2ccccc2)C1 (stereo not drawn) |  | inactive: 19.1% [at 46.1 µM]
57 | Cc1[nH]c2ccccc2c1/C=C/c1nc2ccccc2c(=O)n1CCO | inconclusive: 10 µM [inhibitor, partial curve, poor fit] | 
58 | COc1ccc(NC(=O)CC2C(=O)N(c3ccc(Cl)cc3)C(=S)N2CCc2ccncc2)cc1 (stereo not drawn) | inconclusive: 10.3 µM [inhibitor, partial curve, poor fit] | 
59 | CCOc1ccc(NS(=O)(=O)c2cc(NC(=O)CCS(=O)(=O)c3ccc(C)cc3)ccc2OC)cc1 | inconclusive: 18.4 µM [inhibitor, single point] | 
60 | N=C1c2ccccc2CN1NC(=O)CC12CC3CC(CC(C3)C1)C2 | inconclusive: 20.6 µM [inhibitor, single point] | 
61 | CCOC(=O)c1cnc2c(ccc3ccccc32)c1Nc1ccc(OC)c(OC)c1 | inconclusive: 6.31 µM [inhibitor, full curve, poor fit] | 
62 | O=C(NCC1CCCO1)C(c1ccc(F)cc1)N(CCCN1CCOCC1)C(=O)c1ccc(-c2ccccc2)[nH]1 (stereo not drawn) | inconclusive: 11.2 µM [inhibitor, single point] | 
63 | Cc1ccc(S(=O)(=O)N2CCCCC2)cc1NC(=O)COC(=O)Cc1c(F)cccc1Cl | inconclusive: 0.447 µM [activator, partial curve, poor fit] | 
64 | Cc1ccc(N(CC(=O)NCc2cccnc2)S(C)(=O)=O)cc1C | inconclusive: 6.31 µM [activator, single point] | 
65 | CCC(=O)N(Cc1cc2cc(OC)ccc2[nH]c1=O)c1cccc(C)c1 | inconclusive: 4.11 µM [inhibitor, single point] | 
66 | COc1ccc2c(c1)NC(=O)CC(c1ccccc1)=N2 |  | inactive: 9.88%
67 | Cc1cccc(CN2CCCC(C(=O)Nc3ccc(-c4cscn4)cc3)C2)c1 (stereo not drawn) | inconclusive: 14.1 µM [inhibitor, single point] | 
68 | Cc1cccc(-n2ncc3c2CCCC3NC(=O)C2(C(N)=O)CC2)c1C (stereo not drawn) | inconclusive: 1.78 µM [inhibitor, partial curve, poor fit] | 
